Results deposited as PubChem BioAssay AID504784 (Drosophila RNAi Screening Center, 2011).

Assay: 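Genome-wide knock-down for genes giving too much or too little stored lipid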 (primary screen)
System: Drosophila Kc167 embryonic cells
Knock-down reagent: long dsRNA against Drosophila genes, about 250 ng dsRNA per well
Timing: 4 days
Treatment: cells fed 400 µM oleic acid bound to BSA
Measured: 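Microscope images give a droplet-to-nucleus area ratio, taken as log and converted to a screen-wide B-score; higher values mean greater lipid storage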
Direction: droplet/nuclear area B-score: higher = more stored lipid (overstorage)
The screen tested about 17,000 reagents; below is a random part of those with a known target gene and a result. 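Each column is one replicate's B-score; the combined score over replicates was not deposited, so single values may mislead.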 Reagents against one gene are numbered here. A plus sign joins genes that one reagent is predicted to hit. Reagent sequences are not shown.

| predicted target | dsRNA no. | droplet/nuclear area B-score, replicate 1 | droplet/nuclear area B-score, replicate 2 | droplet/nuclear area B-score, replicate 3 |
| --- | --- | --- | --- | --- |
| mRpL40 (mitochondrial ribosomal protein L40) | 1 | 1.47 | 1.94 | – |
| Lrr47 (Leucine-rich repeat 47) | 1 | 1.11 | -1.48 | – |
| CG4558 | 1 | -0.321 | 2.78 | -0.849 |
| cysu (Curly Su) | 1 | 0.589 | 3.42 | – |
| Rab30 | 1 | 0.288 | 0.388 | – |
| CG1441 | 1 | -1.26 | -0.207 | – |
| CG31687 + Cdc23 | 1 | 0.299 | 0.2 | – |
| Pig1 (Pre-intermoult gene 1) | 1 | 1.12 | 0.484 | – |
| chico | 1 | -1.02 | -0.379 | – |
| Ccdc58 (Coiled-coil domain-containing 58) | 1 | -0.216 | 0.562 | 0.518 |
| S6k (Ribosomal protein S6 kinase) | 1 | 1.35 | 2.73 | – |
| Trm1 (tRNA methyltransferase 1) | 1 | -0.594 | 0.839 | – |
| SmydA-9 (SET and MYND domain containing, arthropod-specific, member 9) | 1 | 0.204 | 0.772 | 0.143 |
| CG9945 | 1 | -1.08 | 1.67 | – |
| CG18278 + CG30059 | 1 | 2.27 | -0.114 | – |
| mfas (midline fasciclin) | 1 | -0.528 | -5.62 | – |
| Spn88Ea (Serpin 88Ea) | 1 | -0.177 | -2.16 | – |
| Sr-CI (Scavenger receptor class C, type I) | 1 | 2.51 | 0.292 | – |
| slbo (slow border cells) | 1 | 0.124 | 2.14 | 0.0982 |
| I-2 (Inhibitor-2) | 1 | -1.22 | 0.744 | – |
| I-2 (Inhibitor-2) | 2 | -1.2 | 0.186 | – |
| l(3)80Fg (lethal (3) 80Fg) | 1 | 1.65 | -0.211 | – |
| l(3)80Fg (lethal (3) 80Fg) | 2 | -0.284 | -0.966 | – |
| mtt (mangetout) | 1 | -1.82 | -0.535 | – |
| mtt (mangetout) | 2 | -0.106 | 0.217 | – |
| mtt (mangetout) | 3 | -3.12 | 1.86 | – |
| mtt (mangetout) | 4 | -3.46 | -0.102 | – |
| yellow-g2 | 1 | 0.196 | -1.27 | – |
| tsu (tsunagi) | 1 | 1.07 | 0.0882 | – |
| CG13532 | 1 | 0.0683 | 2.26 | – |
| GAPsec (GTPase activating protein, SECIS-dependent read-through) | 1 | -1.2 | 0.578 | – |
| fipi (factor of interpulse interval) | 1 | 0.149 | -2.41 | – |
| CG4455 | 1 | -0.275 | -1.22 | 0.948 |
| CG4455 | 2 | 1.14 | 1.43 | – |
| dsh (dishevelled) | 1 | -1.06 | 1.24 | -0.606 |
| Naa60 (N(alpha)-acetyltransferase 60) | 1 | 1.55 | 1.09 | – |
| Rab9Db + Rab9D + Rab9Fa + 1 more | 1 | 0.234 | -1.18 | – |
| ACXC (Adenylyl cyclase X C) | 1 | 0.0947 | -0.116 | – |
| CG33255 (retired record) + hpRNA:CR32205 | 1 | -1.05 | -0.502 | – |
| CG33255 (retired record) + hpRNA:CR32205 | 2 | -0.519 | 0.624 | – |
| Rsph9 (Radial spoke head protein 9) | 1 | 0.723 | 0.875 | – |
| CG6000 | 1 | 0.21 | -0.668 | – |
| Sid (Stress induced DNase) | 1 | 1.34 | 2.4 | – |
| Ugt35D1 (UDP-glycosyltransferase family 35 member D1) | 1 | -0.857 | 2.27 | – |
| CG8435 | 1 | -0.403 | -1.11 | – |
| Obp50b + Obp50c | 1 | -1.34 | 0.238 | – |
| CG30345 | 1 | -0.702 | 1.38 | – |
| CG3706 | 1 | -2.12 | -0.625 | – |
| robl22E | 1 | -0.589 | 0.83 | – |
| CG42404 | 1 | 2.63 | -0.873 | – |
| CG2698 | 1 | 0.647 | 2.96 | – |
| CG43367 | 1 | -0.0295 | 0.348 | – |
| CG43367 | 2 | 0.25 | 1.1 | – |
| CG43367 | 3 | 0.188 | 0.522 | – |
| CG6415 | 1 | 0.0351 | -0.415 | – |
| CG2765 | 1 | -0.158 | -0.739 | – |

An excerpt from above, showing only “droplet/nuclear area B-score, replicate 2”.
Rsph9 (Radial spoke head protein 9) = 0.875
CG6000 = -0.668
Sid (Stress induced DNase) = 2.4
